Assay results: patent US4952607A, “Copper complex for treating cancer” (priority 1986, dated 1990)

Tested on: Sarcoma 180 cells
Assay: Tumor growth and survival of CF1 mice implanted with Sarcoma 180 cells
Assay type: in vivo
Protocol: Autopsies are performed on all dead animals.

## Orgotein: generic name for CuZnSOD derived from bovine liver
5th day after inoculation of tumor cells
  fibroblast response around tumor: development of a prominent fibroblast response in the area surrounding the tumor in some, but not all, of these animals
Tumors developed from treated cells
  tumor histology vs untreated cells: no difference histologically
